Results on 3 sequences are retold here after publication PMC9314909.

Numbering of substitutions follows the chain as printed. The exact form of at least one protein or probe is not confirmed. For part of these data: Weaker means in comparison with the reference protein, sequence or condition of that experiment. For part of these data: At least one verdict was read from the data and is not stated in words by the source. For part of these data: Where a protein sequence is shown, tags need not be part of it.

Test in all cases: EMSA
Holding throughout (settings): LightShift Chemiluminescent EMSA Kit (Thermo) per manufacturer; pH and temperature not stated; recombinant protein; label: 5'-biotin

Series [1] relates to MdHB1-3A T84A,T97A,T133A (Malus domestica).
The next series concerns MdHB1 (Malus domestica).
The next series deals with T1, MdHB2 (Malus domestica) (UniProt I1ZHV9).
T1 sequence (looked up, limits assumed): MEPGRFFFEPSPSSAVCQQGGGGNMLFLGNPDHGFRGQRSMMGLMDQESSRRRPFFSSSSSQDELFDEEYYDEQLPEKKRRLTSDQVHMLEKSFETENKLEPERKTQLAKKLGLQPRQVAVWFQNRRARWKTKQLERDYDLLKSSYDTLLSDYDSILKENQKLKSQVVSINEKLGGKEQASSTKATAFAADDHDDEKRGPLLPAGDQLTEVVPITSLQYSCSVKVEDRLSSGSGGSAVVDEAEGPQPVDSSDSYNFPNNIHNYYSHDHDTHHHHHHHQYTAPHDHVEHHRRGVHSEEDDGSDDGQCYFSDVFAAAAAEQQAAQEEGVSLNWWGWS

Series [2] deals with T2, MdHB2-4A T84A,S85A,T97A,T133A (Malus domestica) (UniProt I1ZHV9).
T2 sequence (looked up, limits assumed): T1 sequence (looked up, limits assumed) with T83A, S84A, T96A, T132A

As to “AAATAAGAAAAATTATGAATATTGTGTTCCAAACATCTTAAGAGGCGCA (double strand) [EMSA-E4 (MdACO1 promoter)]”, the binding result in series [1] is “binds more weakly”; with MdHB1 (Malus domestica) it was “binds”; with MdHB2 (Malus domestica) it was “binds”; in series [2], “binds more weakly”.

For “TAATAGTGTATTATTTTGCTTTACCGTCTACAATTACCAAATTTGGAAAT (double strand) [EMSA-E1 (MdACO1 promoter)]”, the binding result in series [1] is “binds more weakly”; in the series on MdHB1 (Malus domestica), “binds”; in the series with MdHB2 (Malus domestica), “binds”; in series [2], “binds more weakly”.

On to “CATCTCAGTCTTTTTCTCCACCCACCACC (double strand) [EMSA-E6 (MdACO1 promoter)]”, for which the binding result in series [1] is “binds more weakly”; in the series with MdHB1 (Malus domestica), “binds”; with MdHB2 (Malus domestica) it was “binds”; in series [2], “binds more weakly”.
